# Results deposited as PubChem BioAssay AID743454 (Peter MacCallum Cancer Centre, 2014)
# Screen: 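Search for knock-downs that restore vorinostat killing in resistant colon cancer cells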 (primary screen)
# System: human HCT116-VR colon cancer cells, selected for vorinostat resistance
# Reagent: siRNA pool against human genes, 40 nM siRNA pool
# Time to read-out: vorinostat for 24 h, read-out about 72 h after transfection
# Conditions: vorinostat at 2.5 µM final
# Measured: 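Cell viability by CellTiter-Fluor and caspase 3/7 activity by luminescence, each scaled to mock wells per plate, duplicates averaged, then robust z-scored over all plates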
# Reading the numbers: viability robust z-score: higher = more viable cells than screen typical; caspase robust z-score: higher = more caspase 3/7 activity than screen typical
# Call rule: 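a knock-down is a hit when classed RV1 or RV2 for lowered viability, or CA1 or CA2 for caspase activation; those lethal without drug were dropped; hits were retested singly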
# Here is an unselected part of about 18,000 reagents tested. 450 of all reagents (2.5%) were called active. 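Single biological run; no consistent viability z cut-off exists, so the class columns, not z-scores, define the calls.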 Entries without a mark were called inactive.
Gene,viability hit class,caspase hit class,viability robust z-score,caspase robust z-score
OR5M10,no change,no change,0.55,1.5
NR6A1,no change,no change,0.68,-0.59
MRPL19,no change (active),CA2 (caspase activation),-0.35,5.3
MPHOSPH6,no change,no change,0.6,-0.23
TOP6BL,no change,no change,0.47,-1.18
CCDC85A,no change,no change,2.06,0.76
PMAIP1,no change,no change,0.32,-0.84
KCNIP3,no change,no change,-0.88,3.1
PEX7,no change,no change,0.8,0.48
TMEM120B,no change,no change,0.4,-0.3
EWSR1,no change,no change,0.48,0.8
AEBP1,no change,no change,0.84,-0.24
IFIT1B,no change,no change,-0.5,0.5
TMSB4X,no change,no change,-0.42,-0.86
PSMB1,no change,no change,-4.63,1.75
VN1R10P,no change,no change,0.3,-0.89
DEGS1,no change,no change,0.78,-0.35
ZBTB9,no change,no change,-0.28,-0.81
GTSF1L,no change,no change,-0.46,-0.19
GJB1,no change,no change,-1.37,2.97
MRPL12,no change,no change,-0.7,0.36
CYB561,no change,no change,-0.97,-1.29
MAGEC3,no change,no change,-1.58,0.13

Records above with an active call:
Gene,viability hit class,caspase hit class,viability robust z-score,caspase robust z-score
MRPL19,no change (active),CA2 (caspase activation),-0.35,5.3
